Measured values reported in PMC10500460.
No constants are given. Whether binding was seen depends on the method and setting. In cells and extracts the contact can be indirect. These calls come from enrichment with a bait or labelling near it, and not all partners need be listed.

Protein sequences, listed by entry. Tags and fused reporters are not part of them.
UniProt Q8IY21: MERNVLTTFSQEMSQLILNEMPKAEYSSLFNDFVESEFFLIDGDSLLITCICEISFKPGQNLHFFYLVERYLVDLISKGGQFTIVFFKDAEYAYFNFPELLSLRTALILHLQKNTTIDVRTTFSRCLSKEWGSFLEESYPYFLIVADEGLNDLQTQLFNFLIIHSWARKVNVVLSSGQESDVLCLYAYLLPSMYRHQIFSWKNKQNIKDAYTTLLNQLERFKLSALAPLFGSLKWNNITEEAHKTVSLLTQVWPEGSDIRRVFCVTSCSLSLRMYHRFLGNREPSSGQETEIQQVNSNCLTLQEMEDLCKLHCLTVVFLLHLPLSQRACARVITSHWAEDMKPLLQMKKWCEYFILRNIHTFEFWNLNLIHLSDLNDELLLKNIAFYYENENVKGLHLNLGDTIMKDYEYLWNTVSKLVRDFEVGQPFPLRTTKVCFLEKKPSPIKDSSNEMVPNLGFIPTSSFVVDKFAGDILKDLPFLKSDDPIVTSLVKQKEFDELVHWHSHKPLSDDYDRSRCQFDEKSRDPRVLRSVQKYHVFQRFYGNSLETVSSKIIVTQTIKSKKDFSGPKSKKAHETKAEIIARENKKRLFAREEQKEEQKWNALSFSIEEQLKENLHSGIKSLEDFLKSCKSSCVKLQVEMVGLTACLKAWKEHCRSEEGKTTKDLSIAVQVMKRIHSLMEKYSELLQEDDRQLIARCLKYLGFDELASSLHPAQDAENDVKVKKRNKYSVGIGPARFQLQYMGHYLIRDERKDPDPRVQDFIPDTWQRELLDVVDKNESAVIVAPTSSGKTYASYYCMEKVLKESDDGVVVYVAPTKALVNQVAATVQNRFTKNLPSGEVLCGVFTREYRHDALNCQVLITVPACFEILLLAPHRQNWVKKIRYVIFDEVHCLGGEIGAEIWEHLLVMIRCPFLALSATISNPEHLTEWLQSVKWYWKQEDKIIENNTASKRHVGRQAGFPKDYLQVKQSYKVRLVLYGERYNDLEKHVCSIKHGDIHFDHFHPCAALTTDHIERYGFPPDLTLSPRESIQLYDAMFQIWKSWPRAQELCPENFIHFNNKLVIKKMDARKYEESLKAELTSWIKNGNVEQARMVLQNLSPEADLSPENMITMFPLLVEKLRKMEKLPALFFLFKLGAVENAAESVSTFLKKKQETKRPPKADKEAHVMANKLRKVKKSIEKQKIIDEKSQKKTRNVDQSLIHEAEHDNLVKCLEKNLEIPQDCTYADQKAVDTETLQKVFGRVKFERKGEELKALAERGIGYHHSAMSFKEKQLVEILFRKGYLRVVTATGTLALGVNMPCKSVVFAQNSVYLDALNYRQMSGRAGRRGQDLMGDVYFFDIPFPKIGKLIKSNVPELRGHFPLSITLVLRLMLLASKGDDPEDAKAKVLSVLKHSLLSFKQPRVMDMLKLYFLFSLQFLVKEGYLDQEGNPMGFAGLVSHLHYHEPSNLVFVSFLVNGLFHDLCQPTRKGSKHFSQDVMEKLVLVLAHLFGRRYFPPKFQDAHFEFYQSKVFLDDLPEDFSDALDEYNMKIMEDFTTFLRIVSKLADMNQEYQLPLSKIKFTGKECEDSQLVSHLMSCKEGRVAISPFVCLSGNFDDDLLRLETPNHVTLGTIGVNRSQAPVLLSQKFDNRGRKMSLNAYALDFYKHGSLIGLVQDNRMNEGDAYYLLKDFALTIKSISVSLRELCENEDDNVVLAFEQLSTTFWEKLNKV
UniProt Q13547: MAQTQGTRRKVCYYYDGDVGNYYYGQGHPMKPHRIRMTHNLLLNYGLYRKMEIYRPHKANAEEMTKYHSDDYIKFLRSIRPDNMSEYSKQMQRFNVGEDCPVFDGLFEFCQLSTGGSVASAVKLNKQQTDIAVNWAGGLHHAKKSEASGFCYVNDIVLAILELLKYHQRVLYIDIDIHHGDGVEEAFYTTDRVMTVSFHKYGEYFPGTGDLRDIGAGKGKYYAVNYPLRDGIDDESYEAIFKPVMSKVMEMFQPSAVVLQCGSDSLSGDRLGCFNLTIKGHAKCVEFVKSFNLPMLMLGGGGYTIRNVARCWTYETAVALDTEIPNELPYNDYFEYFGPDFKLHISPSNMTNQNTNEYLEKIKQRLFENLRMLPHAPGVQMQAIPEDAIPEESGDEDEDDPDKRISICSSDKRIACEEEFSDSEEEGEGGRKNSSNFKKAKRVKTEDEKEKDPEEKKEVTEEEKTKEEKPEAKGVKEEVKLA
UniProt O00571: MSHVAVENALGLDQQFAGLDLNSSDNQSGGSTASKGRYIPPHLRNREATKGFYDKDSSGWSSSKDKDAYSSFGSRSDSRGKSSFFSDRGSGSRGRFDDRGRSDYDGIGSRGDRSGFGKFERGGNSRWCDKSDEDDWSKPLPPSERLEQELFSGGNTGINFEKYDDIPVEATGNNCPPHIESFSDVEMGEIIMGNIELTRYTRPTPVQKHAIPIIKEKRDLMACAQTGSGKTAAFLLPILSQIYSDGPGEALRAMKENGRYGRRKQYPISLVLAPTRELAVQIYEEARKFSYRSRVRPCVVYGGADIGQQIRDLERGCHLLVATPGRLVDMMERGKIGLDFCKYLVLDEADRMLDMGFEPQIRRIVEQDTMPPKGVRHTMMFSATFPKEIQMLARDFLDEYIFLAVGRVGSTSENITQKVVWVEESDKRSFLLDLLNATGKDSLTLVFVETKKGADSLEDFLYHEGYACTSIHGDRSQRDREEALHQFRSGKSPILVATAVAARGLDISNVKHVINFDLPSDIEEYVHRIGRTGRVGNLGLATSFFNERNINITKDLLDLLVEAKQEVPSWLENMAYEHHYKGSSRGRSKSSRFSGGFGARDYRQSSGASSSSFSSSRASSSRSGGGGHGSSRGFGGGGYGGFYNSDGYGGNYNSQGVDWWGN
UniProt Q8TEW0: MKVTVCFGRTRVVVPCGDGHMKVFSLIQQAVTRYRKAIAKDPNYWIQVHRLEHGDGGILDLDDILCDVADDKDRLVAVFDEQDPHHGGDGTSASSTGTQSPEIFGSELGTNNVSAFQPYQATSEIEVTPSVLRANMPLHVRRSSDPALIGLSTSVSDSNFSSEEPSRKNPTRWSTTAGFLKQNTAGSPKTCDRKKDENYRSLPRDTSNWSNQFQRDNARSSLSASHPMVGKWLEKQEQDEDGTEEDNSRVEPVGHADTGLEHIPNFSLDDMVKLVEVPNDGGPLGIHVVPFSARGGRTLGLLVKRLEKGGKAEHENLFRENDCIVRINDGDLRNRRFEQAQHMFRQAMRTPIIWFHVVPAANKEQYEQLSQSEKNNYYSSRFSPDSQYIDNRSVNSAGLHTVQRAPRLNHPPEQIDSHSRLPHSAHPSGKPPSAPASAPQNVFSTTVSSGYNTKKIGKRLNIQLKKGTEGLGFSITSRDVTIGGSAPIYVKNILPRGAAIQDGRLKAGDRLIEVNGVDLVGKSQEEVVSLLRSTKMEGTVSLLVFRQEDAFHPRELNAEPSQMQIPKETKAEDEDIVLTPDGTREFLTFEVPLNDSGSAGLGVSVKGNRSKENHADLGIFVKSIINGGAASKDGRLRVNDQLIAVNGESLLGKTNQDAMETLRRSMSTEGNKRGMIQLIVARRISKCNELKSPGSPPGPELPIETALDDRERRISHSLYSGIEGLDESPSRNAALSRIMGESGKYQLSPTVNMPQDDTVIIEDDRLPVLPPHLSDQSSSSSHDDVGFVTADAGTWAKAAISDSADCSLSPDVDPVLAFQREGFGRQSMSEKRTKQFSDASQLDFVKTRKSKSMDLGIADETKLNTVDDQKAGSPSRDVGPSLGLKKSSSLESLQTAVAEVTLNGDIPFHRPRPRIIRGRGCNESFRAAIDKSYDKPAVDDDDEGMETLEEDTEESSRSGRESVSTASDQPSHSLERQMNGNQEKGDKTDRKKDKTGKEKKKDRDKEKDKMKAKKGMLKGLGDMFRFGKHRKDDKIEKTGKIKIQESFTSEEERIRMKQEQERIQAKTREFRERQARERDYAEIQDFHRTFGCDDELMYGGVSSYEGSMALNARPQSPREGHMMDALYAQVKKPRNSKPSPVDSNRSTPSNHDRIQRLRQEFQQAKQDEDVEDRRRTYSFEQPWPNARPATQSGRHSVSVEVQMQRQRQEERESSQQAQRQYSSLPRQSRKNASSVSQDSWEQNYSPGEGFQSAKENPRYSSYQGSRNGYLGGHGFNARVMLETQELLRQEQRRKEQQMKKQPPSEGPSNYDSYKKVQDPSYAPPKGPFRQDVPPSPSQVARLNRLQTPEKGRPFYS
UniProt Q96CW1: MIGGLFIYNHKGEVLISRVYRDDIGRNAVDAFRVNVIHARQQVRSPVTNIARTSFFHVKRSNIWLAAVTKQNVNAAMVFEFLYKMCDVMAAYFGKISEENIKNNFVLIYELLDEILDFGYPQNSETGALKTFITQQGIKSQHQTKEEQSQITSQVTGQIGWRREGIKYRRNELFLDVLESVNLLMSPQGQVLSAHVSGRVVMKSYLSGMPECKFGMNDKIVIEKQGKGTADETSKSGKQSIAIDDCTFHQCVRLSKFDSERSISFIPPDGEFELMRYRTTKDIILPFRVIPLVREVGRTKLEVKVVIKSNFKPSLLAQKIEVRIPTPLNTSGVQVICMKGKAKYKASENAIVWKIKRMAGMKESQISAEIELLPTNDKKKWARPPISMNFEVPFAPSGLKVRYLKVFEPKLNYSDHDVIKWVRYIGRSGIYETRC
UniProt Q8TDM6: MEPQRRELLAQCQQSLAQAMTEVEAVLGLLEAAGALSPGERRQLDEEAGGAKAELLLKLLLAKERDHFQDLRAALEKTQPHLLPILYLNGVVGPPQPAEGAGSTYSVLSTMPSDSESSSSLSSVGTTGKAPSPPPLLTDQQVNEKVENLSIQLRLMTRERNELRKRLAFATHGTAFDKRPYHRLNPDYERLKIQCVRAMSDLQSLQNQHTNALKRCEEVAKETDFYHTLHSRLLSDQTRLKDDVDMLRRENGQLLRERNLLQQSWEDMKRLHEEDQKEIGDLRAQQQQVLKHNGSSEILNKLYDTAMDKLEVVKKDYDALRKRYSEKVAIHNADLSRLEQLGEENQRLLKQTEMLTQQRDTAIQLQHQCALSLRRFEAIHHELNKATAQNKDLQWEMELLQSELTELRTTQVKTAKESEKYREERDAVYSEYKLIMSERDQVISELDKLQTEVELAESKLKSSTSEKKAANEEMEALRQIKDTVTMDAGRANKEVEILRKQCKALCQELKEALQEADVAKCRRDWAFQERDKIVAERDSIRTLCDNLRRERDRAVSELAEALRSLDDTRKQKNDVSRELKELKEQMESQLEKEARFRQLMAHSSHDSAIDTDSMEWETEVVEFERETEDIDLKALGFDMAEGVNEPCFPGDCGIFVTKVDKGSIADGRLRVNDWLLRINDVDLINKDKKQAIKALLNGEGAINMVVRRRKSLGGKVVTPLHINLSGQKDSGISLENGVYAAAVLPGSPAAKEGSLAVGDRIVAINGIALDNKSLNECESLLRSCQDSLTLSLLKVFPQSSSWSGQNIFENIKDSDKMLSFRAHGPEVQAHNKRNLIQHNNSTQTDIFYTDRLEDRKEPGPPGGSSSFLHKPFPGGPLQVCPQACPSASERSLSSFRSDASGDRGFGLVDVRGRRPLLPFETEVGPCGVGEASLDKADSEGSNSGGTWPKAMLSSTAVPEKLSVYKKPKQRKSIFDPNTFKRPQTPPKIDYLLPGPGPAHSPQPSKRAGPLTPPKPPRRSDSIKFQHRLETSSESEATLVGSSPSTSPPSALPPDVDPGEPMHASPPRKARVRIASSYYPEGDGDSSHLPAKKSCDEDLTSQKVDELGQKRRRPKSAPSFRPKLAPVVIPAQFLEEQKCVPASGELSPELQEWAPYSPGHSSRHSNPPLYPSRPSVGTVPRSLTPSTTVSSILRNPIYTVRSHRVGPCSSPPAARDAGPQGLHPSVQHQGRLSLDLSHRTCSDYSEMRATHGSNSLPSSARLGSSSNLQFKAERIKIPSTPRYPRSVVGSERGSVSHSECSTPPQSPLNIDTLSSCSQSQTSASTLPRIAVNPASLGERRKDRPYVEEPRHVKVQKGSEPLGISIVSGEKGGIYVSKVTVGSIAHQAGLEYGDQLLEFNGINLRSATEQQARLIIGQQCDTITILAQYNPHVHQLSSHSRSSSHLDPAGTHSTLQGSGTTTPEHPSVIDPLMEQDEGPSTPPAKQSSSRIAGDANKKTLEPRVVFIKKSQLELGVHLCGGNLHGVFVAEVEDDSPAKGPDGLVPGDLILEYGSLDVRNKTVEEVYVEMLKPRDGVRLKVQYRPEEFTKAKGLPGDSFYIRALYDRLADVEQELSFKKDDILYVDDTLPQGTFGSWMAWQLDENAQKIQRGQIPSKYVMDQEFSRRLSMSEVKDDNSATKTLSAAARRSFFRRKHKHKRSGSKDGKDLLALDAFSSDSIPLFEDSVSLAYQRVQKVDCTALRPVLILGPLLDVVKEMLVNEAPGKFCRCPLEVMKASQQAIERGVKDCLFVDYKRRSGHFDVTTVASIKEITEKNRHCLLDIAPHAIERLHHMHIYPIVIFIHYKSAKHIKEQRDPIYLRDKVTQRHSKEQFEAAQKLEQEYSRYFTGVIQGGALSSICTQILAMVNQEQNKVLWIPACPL

B1: pRb protein (endogenous, HaCat) (protein, UniProt P06400 1-928)
chain: MPPKTPRKTAATAAAAAAEPPAPPPPPPPEEDPEQDSGPEDLPLVRLEFEETEEPDFTALCQKLKIPDHVRERAWLTWEKVSSVDGVLGGYIQKKKELWGICIFIAAVDLDEMSFTFTELQKNIEISVHKFFNLLKEIDTSTKVDNAMSRLLKKYDVLFALFSKLERTCELIYLTQPSSSISTEINSALVLKVSWITFLLAKGEVLQMEDDLVISFQLMLCVLDYFIKLSPPMLLKEPYKTAVIPINGSPRTPRRGQNRSARIAKQLENDTRIIEVLCKEHECNIDEVKNVYFKNFIPFMNSLGLVTSNGLPEVENLSKRYEEIYLKNKDLDARLFLDHDKTLQTDSIDSFETQRTPRKSNLDEEVNVIPPHTPVRTVMNTIQQLMMILNSASDQPSENLISYFNNCTVNPKESILKRVKDIGYIFKEKFAKAVGQGCVEIGSQRYKLGVRLYYRVMESMLKSEEERLSIQNFSKLLNDNIFHMSLLACALEVVMATYSRSTSQNLDSGTDLSFPWILNVLNLKAFDFYKVIESFIKAEGNLTREMIKHLERCEHRIMESLAWLSDSPLFDLIKQSKDREGPTDHLESACPLNLPLQNNHTAADMYLSPVRSPKKKGSTTRVNSTANAETQATSAFQTQKPLKSTSLSLFYKKVYRLAYLRLNTLCERLLSEHPELEHIIWTLFQHTLQNEYELMRDRHLDQIMMCSMYGICKVKNIDLKFKIIVTAYKDLPHAVQETFKRVLIKEEEYDSIIVFYNSVFMQRLKTNILQYASTRPPTLSPIPHIPRSPYKFPSSPLRIPGGNIYISPLKSPYKISEGLPTPTKMTPRSRILVSIGESFGTSEKFQKINQMVCNSDRVLKRSAEGSNPPKPLKKLRFDIEGSDEADGSKHLPGESKFQQKLAEMTSTRTRMQKQKMNDSMDTSNKEEK

Assays:
[1] = target: T1, 16 E7 19–20 phospho-peptide (human papillomavirus type 16); assay: affinity purification with mass spectrometry; biotinylated peptides bound to streptavidin-conjugated beads, incubated with pre-cleared HaCat cell extracts; bound proteins identified by mass spectrometry; only the target purified
T1 sequence (peptide, biotin on the N-terminus; phosphothreonine at 19 and 20): LDLQPETTDLYCYEQL

[2] = target: T2, 16 E7 19–20 peptide (human papillomavirus type 16); assay: as above
T2 sequence (peptide, biotin on the N-terminus): LDLQPETTDLYCYEQL

Molecule	binding [1]	binding [2]
RAD50 (from UniProt Q92878 1-1312)	binds	
PTPN13 (endogenous, HaCat) (from UniProt Q12923 1-2485)	binds	
DDX60 (from UniProt Q8IY21 1-1712)	binds	
HDAC1 (from UniProt Q13547 1-482)	binds	
DDX3X (from UniProt O00571 1-662)	binds	
NBS1 (from UniProt O60934 1-754)	binds	
PARD3 (endogenous, HaCat) (from UniProt Q8TEW0 1-1356)	binds	
SETX (from UniProt Q7Z333 1-2677)	binds	
AP2-μ2 adaptor protein subunit (endogenous, HaCat) (from UniProt Q96CW1 1-435)	binds	
SCRIB (from UniProt Q14160 1-1655)	binds	
DLG5 (from UniProt Q8TDM6 1-1919)	binds	
B1	binds	binds
